According to patent US20070256193A1:
Results are given in words; binding and its absence hold for the method and conditions named. Some results given as binding are weak or reduced against the parent protein; the word gives no strength. For part of these data: Tags and fused reporters may be left off the sequences shown. Blank lines part the entries; values can stand above or below the binder they belong to.

Assays:
[1] = molecular target: T1, RPW8.2, as bait in the yeast two-hybrid system (Arabidopsis) (UniProt Q9C5Z6); test: yeast two-hybrid (Matchmaker LexA), Arabidopsis cDNA library screened with RPW8.2 as bait
T1 sequence (looked up): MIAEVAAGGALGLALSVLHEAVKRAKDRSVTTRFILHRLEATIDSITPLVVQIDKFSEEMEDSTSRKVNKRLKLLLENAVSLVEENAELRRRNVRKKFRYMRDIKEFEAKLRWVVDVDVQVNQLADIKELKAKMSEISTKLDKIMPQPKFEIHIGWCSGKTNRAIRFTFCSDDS

[2] = molecular target: T2, RPW8.1, in the yeast two-hybrid system (Arabidopsis) (UniProt Q9C5Z7); test: yeast two-hybrid
T2 sequence (looked up): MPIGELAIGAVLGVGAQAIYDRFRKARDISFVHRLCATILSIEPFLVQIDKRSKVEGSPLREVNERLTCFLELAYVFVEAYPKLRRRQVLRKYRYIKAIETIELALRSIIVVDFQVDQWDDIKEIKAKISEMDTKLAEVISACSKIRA

[3] = molecular target: T3, RPW8 (RPW8.1 or RPW8.2 not specified) (Arabidopsis) (UniProt Q9C5Z6); test: yeast two-hybrid screen for RPW8-interacting partners
T3 sequence: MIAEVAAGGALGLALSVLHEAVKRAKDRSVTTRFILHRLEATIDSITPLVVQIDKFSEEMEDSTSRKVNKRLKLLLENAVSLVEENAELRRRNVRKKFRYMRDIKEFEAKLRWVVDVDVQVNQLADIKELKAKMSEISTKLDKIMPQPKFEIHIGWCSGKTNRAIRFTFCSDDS

[4] = molecular target: T4, YFP^C:14-3-3a (carboxyl-terminal yellow fluorescent protein fragment fused to 14-3-3a) (Arabidopsis) (UniProt P48349); test: bimolecular fluorescence complementation (BiFC) in leaves of a transgenic Arabidopsis line
T4 sequence (looked up): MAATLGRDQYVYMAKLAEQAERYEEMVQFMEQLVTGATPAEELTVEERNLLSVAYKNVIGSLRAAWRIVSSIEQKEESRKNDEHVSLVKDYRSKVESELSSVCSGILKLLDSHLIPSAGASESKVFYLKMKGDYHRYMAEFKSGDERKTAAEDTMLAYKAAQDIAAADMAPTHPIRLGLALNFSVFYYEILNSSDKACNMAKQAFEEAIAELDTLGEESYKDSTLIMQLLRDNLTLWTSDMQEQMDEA

[5] = molecular target: T4, YFP^C:14-3-3a (carboxyl-terminal yellow fluorescent protein fragment fused to 14-3-3a) (Arabidopsis); test: bimolecular fluorescence complementation (BiFC), YFP fluorescence
[6] = molecular target: T3, RPW8 (RPW8.1 or RPW8.2 not specified) (Arabidopsis); test: yeast two-hybrid

- binding [1]: binds
- binding [2]: binds
- binding [3]: binds
B1: defense-associated protein phosphatase type 2C one (DAPP1), as prey clone in the yeast two-hybrid system (enzyme)
chain: MGKFCCFTSASEVVGGQSSSRSGKGRSDEGMIKYGFSLVKGKANHPMEDYHVANFINIQDHELGLFAIYDGHMGDSVPAYLQKRLFSNILKEGEFWVDPRRSIAKAYEKTDQAILSNSSDLGRGGSTAVTAILINGRKLWIANVGDSRAVLSHGGAITQMSTDHEPRTERSSIEDRGGFVSNLPGDVPRVNGQLAVSRAFGDKGLKTHLSSEPDIKEATVDSQTDVLLLASDGIWKVMTNEEAMEIARRVKDPQKAAKELTAEALRRESKDDISCVVVRFR

- binding [4]: binds
- binding [5]: binds
B2: YFP^N:DAPP1 (amino-terminal yellow fluorescent protein fragment fused to DAPP1) (protein, not shown: large carriers)
chain: MGKFCCFTSASEVVGGQSSSRSGKGRSDEGMIKYGFSLVKGKANHPMEDYHVANFINIQDHELGLFAIYDGHMGDSVPAYLQKRLFSNILKEGEFWVDPRRSIAKAYEKTDQAILSNSSDLGRGGSTAVTAILINGRKLWIANVGDSRAVLSHGGAITQMSTDHEPRTERSSIEDRGGFVSNLPGDVPRVNGQLAVSRAFGDKGLKTHLSSEPDIKEATVDSQTDVLLLASDGIWKVMTNEEAMEIARRVKDPQKAAKELTAEALRRESKDDISCVVVRFR

- binding [6]: binds
B3: 14-3-3a, in the yeast two-hybrid system (protein, Arabidopsis, UniProt P48349 1-248, looked up)
chain: MAATLGRDQYVYMAKLAEQAERYEEMVQFMEQLVTGATPAEELTVEERNLLSVAYKNVIGSLRAAWRIVSSIEQKEESRKNDEHVSLVKDYRSKVESELSSVCSGILKLLDSHLIPSAGASESKVFYLKMKGDYHRYMAEFKSGDERKTAAEDTMLAYKAAQDIAAADMAPTHPIRLGLALNFSVFYYEILNSSDKACNMAKQAFEEAIAELDTLGEESYKDSTLIMQLLRDNLTLWTSDMQEQMDEA
